In PubChem BioAssay AID529 (NMMLSC, 2006):
The campaign covered roughly 24,000 compounds. About 50 (0.2%) were called active. This list was built around the results that the source calls inconclusive (neither active nor inactive); the mix of calls is not that of the screen.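 Rule for the calls: active = inhibition above 50%; inconclusive = compound itself fluorescent, judged against control cell fluorescence; inactive = the rest.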

Chains of the proteins cited; added tags and fusions are not shown.
UniProt P13612, whole entry, looked up: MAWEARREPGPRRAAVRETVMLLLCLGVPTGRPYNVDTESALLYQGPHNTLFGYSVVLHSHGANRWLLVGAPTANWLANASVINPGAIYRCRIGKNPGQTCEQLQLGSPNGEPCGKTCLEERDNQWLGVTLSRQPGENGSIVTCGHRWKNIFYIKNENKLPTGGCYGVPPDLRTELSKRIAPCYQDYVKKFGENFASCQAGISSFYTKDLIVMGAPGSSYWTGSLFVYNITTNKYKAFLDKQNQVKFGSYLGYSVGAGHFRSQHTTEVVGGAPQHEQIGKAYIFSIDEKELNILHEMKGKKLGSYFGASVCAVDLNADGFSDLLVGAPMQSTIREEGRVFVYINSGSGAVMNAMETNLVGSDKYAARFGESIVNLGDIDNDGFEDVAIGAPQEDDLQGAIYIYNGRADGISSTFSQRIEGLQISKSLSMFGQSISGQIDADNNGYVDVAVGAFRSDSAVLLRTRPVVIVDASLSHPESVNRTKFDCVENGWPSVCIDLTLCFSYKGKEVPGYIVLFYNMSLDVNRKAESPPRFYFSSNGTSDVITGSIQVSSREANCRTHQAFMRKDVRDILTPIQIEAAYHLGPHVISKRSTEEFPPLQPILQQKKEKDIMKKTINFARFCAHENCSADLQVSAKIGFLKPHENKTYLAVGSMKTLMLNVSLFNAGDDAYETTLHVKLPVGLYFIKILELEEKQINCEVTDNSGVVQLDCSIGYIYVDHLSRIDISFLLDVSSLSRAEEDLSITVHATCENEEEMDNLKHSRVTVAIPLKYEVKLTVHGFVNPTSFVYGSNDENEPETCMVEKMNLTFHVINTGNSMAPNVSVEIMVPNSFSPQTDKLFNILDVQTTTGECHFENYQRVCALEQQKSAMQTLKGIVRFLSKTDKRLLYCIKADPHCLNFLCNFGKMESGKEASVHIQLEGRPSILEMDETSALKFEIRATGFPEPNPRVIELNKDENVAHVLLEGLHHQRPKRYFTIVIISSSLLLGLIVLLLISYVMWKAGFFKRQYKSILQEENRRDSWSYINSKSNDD

Biological target: Integrin alpha-4 (Homo sapiens) (UniProt P13612)
Experiment: blockers of LDV-FITC ligand binding on VLA-4 – Jurkat cells, Mn2+ activated, primary screen (AID 529);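 for inhibition: 0% = Mn2+ stimulated cells lacking compound and 100% = ligand binding without Mn2+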
Details: LDV-FITC binding with Mn2+, flow cytometry; active compounds read high, screened at 10 µM (by protocol), 100% = Mn2+-driven binding gain fully reversed unless noted

Row | Compound | inhibition
1 | Cc1cc(C(=O)CN2CC(C)OC(C)C2)c(C)n1-c1ccccc1 (centres undefined) | inconclusive
2 | CCOc1cc(C2C(C(=O)OCC(C)C)=C(C)N=C3SCCC(=O)N32)ccc1OC(C)=O (centres undefined) | inactive: -1%
3 | Cc1ccc(-c2nnc3n2N=C(c2ccc(Br)cc2)CS3)cc1 | inconclusive
4 | O=C(O)CCc1cc(I)c(Oc2ccc(O)c(I)c2)c(I)c1 | inactive: 4.5%
5 | CCCCNC(=O)CCCCCn1c(=O)[nH]c2cc(OC)c(OC)cc2c1=O | inconclusive
6 | c1csc(-c2nc3nc4ccccc4nc3n2Cc2ccc3c(c2)OCO3)c1 | inconclusive
7 | O=S(=O)(Nc1ccccn1)c1ccc(Oc2ccccc2)cc1 | inactive: -1.3% [active compounds read high, 100% = Mn2+-driven binding gain fully reversed, screened at 10 µM (by protocol)]
8 | Cc1cccn2c(=O)c3cc(C(=O)NCCCn4ccnc4)n(C)c3nc12 | inconclusive
9 | CC1Cc2ccccc2N1C(=O)C1CCCN(S(=O)(=O)c2cccc3nsnc23)C1 (centres undefined) | inconclusive
10 | C=CCSc1nnc(-c2ccccc2NC(C)=O)c(=O)[nH]1 | inconclusive
11 | COC(=O)C(Cc1cncn1COCc1ccccc1)NC(=O)OC(C)(C)C (centres undefined) | inconclusive
12 | CCN(Cc1ccccc1)C(=O)CC1Oc2ccccc2NC1=O (centres undefined) | inconclusive
13 | CCc1ccccc1N(CC)C(=O)CCc1nc(-c2ccc(C)cc2)no1 | inconclusive
14 | COc1ccc(-n2nnc3c(SCC(=O)c4ccccc4)ncnc32)cc1 | inconclusive
15 | O=C(/C=C/N1CCOCC1)c1ccc(-c2ccccc2)cc1 | inconclusive
16 | O=C(CSc1nccn1-c1ccc(F)cc1)Nc1ccc2c(c1)OCO2 | inconclusive
17 | CC(CCc1ccccc1)NC(=O)C1CCCN(C(=O)c2cc3sccc3n2C)C1 (centres undefined) | inconclusive
18 | Cc1cc(=O)n2nc(N3CCCC(C(=O)NCCCN4CCc5ccccc5C4)C3)sc2n1 (centres undefined) | inactive: 1%
19 | COc1ccc2cc3cc(C(=O)Nc4ccc5c(c4)OCO5)oc3nc2c1 | inconclusive
20 | O=C(Cn1nc(-c2ccccc2)ccc1=O)NCc1ccc2c(c1)OCO2 | inconclusive
21 | COc1ccc(S(=O)(=O)N2CCCN(CC(=O)Nc3ccc(OC)c(Cl)c3)CC2)cc1 | inconclusive
22 | CC(C)c1ccc(O)c(NC(=O)c2ncn[nH]2)c1 | inconclusive
23 | COc1ccc(OC)c(NC(=O)CN(c2ccc(C(C)C)cc2)S(=O)(=O)c2c(C)noc2C)c1 | inconclusive

Row | Compound | inhibition
24 | CC(NC(=O)Cc1cccs1)C(c1cccs1)N1CCN(c2ccccc2F)CC1 (centres undefined) | inactive: 17%
25 | O=C1c2ccccc2NC(c2cnc3ccccc3n2)N1O (centres undefined) | inconclusive
26 | COc1ccc(N2CC(O)=C(c3nc4ccccc4s3)C2=N)c(OC)c1 | inconclusive
27 | CN(C)CCNC(=O)Cc1c(C(=O)O)n(C)c2ccccc12 | inconclusive
28 | CC(C)(C)n1ncc2c(=O)n(CC(=O)c3ccc(Cl)cc3)cnc21 | inconclusive
29 | CCOc1ccc(C(=O)Nc2cccc(-c3nc4cccnc4o3)c2)cc1Cl | inconclusive
30 | CCCSc1nnc(NC(=O)c2sc3nc(-c4cccs4)ccc3c2N)s1 | inconclusive
31 | COc1ccc(C2C(C(C)=O)=C(C)N=c3s/c(=C/c4ccc5c(c4)OCO5)c(=O)n32)cc1 (centres undefined) | inactive: -1.7%
32 | COc1ccc2cnn(-c3ccccc3C)c(=O)c2c1OC | inactive: -11%
33 | Cc1cc(C(=O)Nc2sc3c(c2C#N)CCC(C(C)(C)C)C3)no1 (centres undefined) | inconclusive
34 | CCOC(=O)c1c(-c2cccs2)csc1NC(=O)CCCC(=O)O | inconclusive
35 | CCC(=O)N1CCc2cc(S(=O)(=O)CCC(=O)O)ccc21 | inactive: 11%
36 | COc1ccccc1-n1c(SCC(=O)Nc2ccccc2F)nc2[nH]ncc2c1=O | inconclusive
37 | CCSc1nc2c(c(=O)[nH]1)C(c1ccncc1)C(C(=O)OC)=C(C)N2 (centres undefined) | inconclusive
38 | OCCCc1nc2n(n1)C(c1ccccc1Cl)C=C(c1cccs1)N2 (centres undefined) | inconclusive
39 | Cn1c(C(=O)NCCCN2CCN(c3ccccc3F)CC2)cc2c(=O)[nH]c3ccccc3c21 | inconclusive
40 | Cc1cc(C)nc(N2CCC(C(=O)NCc3cccc(C(F)(F)F)c3)CC2)n1 | inactive: -28.5%
41 | CCCc1cc(=O)oc2cc3oc(C)c(C)c3cc12 | inconclusive
42 | Cc1ccc2c(c1)NC(=O)C(CC(=O)NCCCN1CCN(C3CCCCC3)CC1)O2 (centres undefined) | inconclusive
43 | O=C(CSc1ncnc2ccccc12)N1CCN(c2ccccc2)CC1 | inconclusive
44 | COc1cc(/C=C/C(=O)CC(=O)/C=C/c2ccc(O)c(OC)c2)ccc1O | inconclusive
45 | CC1=C(C(=O)NCCN2CCOCC2)C2(CCC(C)CC2)OC1=O (centres undefined) | inconclusive
46 | Cc1cc(N2C(=O)c3ccc(C(=O)NCc4ccccc4)cc3C2=O)no1 | inactive: 3% [active compounds read high, 100% = Mn2+-driven binding gain fully reversed, screened at 10 µM (by protocol)]

Row | Compound | inhibition
47 | CCOC(=O)N1CCC(NC(=O)CSCc2nc(-c3sccc3C)oc2C)CC1 | inconclusive
48 | O=C(Nc1cccc(F)c1)C1CCCN1S(=O)(=O)c1cccc2cccnc12 (centres undefined) | inconclusive
49 | Cc1occc1-c1nnc(SCC(=O)N2CCOCC2)n1Cc1ccco1 | inconclusive
50 | CCC(=O)Nc1cccc(-c2nc3ccccc3c(=O)o2)c1 | inactive: -30%
51 | CCCN1CCN(C(=O)Cn2cccc2C(=O)c2ccccc2)CC1 | inconclusive
52 | CCSCc1nnc(SCC(=O)Nc2cccc(SC)c2)n1C | inactive: -19%
53 | CC(C)(C)C(=O)OCCn1c(=O)c2cc3c(=O)n(CCOC(=O)C(C)(C)C)c(=O)c3cc2c1=O | inconclusive
54 | Cc1ccc(CSC2=Nc3ccccc3C3=NC(CCC(=O)NCc4ccco4)C(=O)N23)cc1 (centres undefined) | inconclusive
55 | CCCOc1ccccc1NC(=O)c1ccc(N)cc1 | inactive: 5.3%
56 | CCOC(=O)N1CCC(Nc2c(NCCN3CCN(c4cccc(Cl)c4)CC3)c(=O)c2=O)CC1 | inconclusive
57 | CCS(=O)(=O)NC(C)C(c1cccs1)N1CCN(C)CC1 (centres undefined) | inconclusive
58 | CCOc1ccc(C(=O)N2CCN=C2SC)cc1OCC | inconclusive
59 | Cc1ccnc(N2C(=O)c3ccccc3C2Nc2cccc(C)c2C)c1 (centres undefined) | inconclusive
60 | O=C(c1cc2ccccc2cc1OCC(O)CN1CCCCC1)N1CCCCC1 (centres undefined) | inconclusive
61 | CCOC(=O)c1c(C(=O)OCC)c(C)n(N2C(=O)CSC2=S)c1C | inconclusive
62 | OCC#CCSc1nnc(-c2ccc(Br)cc2)o1 | inconclusive
63 | COc1ccccc1NC(=O)Cn1nnc(C(=O)Nc2ccccc2)c1N | inconclusive
64 | CCC(C)NC(=O)CS(=O)Cc1nc(-c2cccc(OC)c2)oc1C (centres undefined) | inconclusive
65 | COc1cccc(-c2cc(C(=O)Nc3cc(OC)c(OC)c(OC)c3)no2)c1 | inconclusive
66 | Cc1ccsc1C1C(C(=O)O)c2ccccc2C(=O)N1C (centres undefined) | inconclusive
67 | CCn1ncc(C2=NOC(C(=O)Nc3ccc4c(c3)OCO4)C2)c1C (centres undefined) | inconclusive
68 | CC(C)c1ccc(-c2nc(N3CCOCC3)[nH]c(=O)c2C#N)cc1 | inactive: -14%
69 | CCCC(NC(=O)c1ccccc1)c1nc2ccccc2n1Cc1ccc(C(=O)OC)o1 (centres undefined) | inactive: 1% [active compounds read high, 100% = Mn2+-driven binding gain fully reversed, screened at 10 µM (by protocol)]

Compounds 50–66, quoted:
Row | Compound | inhibition
50 | CCC(=O)Nc1cccc(-c2nc3ccccc3c(=O)o2)c1 | inactive: -30%
51 | CCCN1CCN(C(=O)Cn2cccc2C(=O)c2ccccc2)CC1 | inconclusive
52 | CCSCc1nnc(SCC(=O)Nc2cccc(SC)c2)n1C | inactive: -19%
53 | CC(C)(C)C(=O)OCCn1c(=O)c2cc3c(=O)n(CCOC(=O)C(C)(C)C)c(=O)c3cc2c1=O | inconclusive
54 | Cc1ccc(CSC2=Nc3ccccc3C3=NC(CCC(=O)NCc4ccco4)C(=O)N23)cc1 (centres undefined) | inconclusive
55 | CCCOc1ccccc1NC(=O)c1ccc(N)cc1 | inactive: 5.3%
56 | CCOC(=O)N1CCC(Nc2c(NCCN3CCN(c4cccc(Cl)c4)CC3)c(=O)c2=O)CC1 | inconclusive
57 | CCS(=O)(=O)NC(C)C(c1cccs1)N1CCN(C)CC1 (centres undefined) | inconclusive
58 | CCOc1ccc(C(=O)N2CCN=C2SC)cc1OCC | inconclusive
59 | Cc1ccnc(N2C(=O)c3ccccc3C2Nc2cccc(C)c2C)c1 (centres undefined) | inconclusive
60 | O=C(c1cc2ccccc2cc1OCC(O)CN1CCCCC1)N1CCCCC1 (centres undefined) | inconclusive
61 | CCOC(=O)c1c(C(=O)OCC)c(C)n(N2C(=O)CSC2=S)c1C | inconclusive
62 | OCC#CCSc1nnc(-c2ccc(Br)cc2)o1 | inconclusive
63 | COc1ccccc1NC(=O)Cn1nnc(C(=O)Nc2ccccc2)c1N | inconclusive
64 | CCC(C)NC(=O)CS(=O)Cc1nc(-c2cccc(OC)c2)oc1C (centres undefined) | inconclusive
65 | COc1cccc(-c2cc(C(=O)Nc3cc(OC)c(OC)c(OC)c3)no2)c1 | inconclusive
66 | Cc1ccsc1C1C(C(=O)O)c2ccccc2C(=O)N1C (centres undefined) | inconclusive

3 structures out of the list, arranged by length of the SMILES, smallest number first:
Row | Compound | inhibition
19 | COc1ccc2cc3cc(C(=O)Nc4ccc5c(c4)OCO5)oc3nc2c1 | inconclusive
29 | CCOc1ccc(C(=O)Nc2cccc(-c3nc4cccnc4o3)c2)cc1Cl | inconclusive
42 | Cc1ccc2c(c1)NC(=O)C(CC(=O)NCCCN1CCN(C3CCCCC3)CC1)O2 (centres undefined) | inconclusive

The listing continues.

Row | Compound | inhibition
70 | CCOC(=O)c1ccc(N2C(=O)CC(Sc3nnc(C)s3)C2=O)cc1 (centres undefined) | inconclusive
71 | COc1ccc(Cc2nnc(NC(=O)c3c(-c4ccccc4)noc3C)s2)cc1OC | inconclusive
72 | COc1ccc(-c2nnc(Nc3nc4c(OC)cccc4s3)o2)c(OC)c1 | active: 68%
73 | Cc1ccccc1C(=O)NCCN=C1NS(=O)(=O)c2ccccc21 | inactive: -4% [active compounds read high, 100% = Mn2+-driven binding gain fully reversed, screened at 10 µM (by protocol)]
74 | O=C(CN1CCN(c2nc(-c3ccc(F)cc3)cs2)CC1)NCc1ccc2c(c1)OCO2 | inconclusive
75 | CCOCCCNC(=O)c1cn(CC(C)C)c(=O)c2cc(OC)c(OC)cc12 | inconclusive
76 | COC(=O)c1ccc(CSc2nc3ccccc3c(=O)n2Cc2ccco2)o1 | inactive: 4%
77 | Cc1ccc(CSC2=Nc3ccccc3C3=NC(CC(=O)NCc4ccco4)C(=O)N23)cc1 (centres undefined) | inconclusive
78 | Cc1ccc(-c2nc3cnccn3c2Nc2ccccc2)o1 | inconclusive
79 | CCOc1ccc(NC(=O)CSc2nnc(Cc3cccn3C)n2-c2ccc(F)cc2)cc1 | inconclusive
80 | COc1cccc(-n2c(SCC(=O)NCCC3=CCCCC3)nc3n[nH]c(C)c3c2=N)c1 | inconclusive
81 | Cc1nn(-c2ccc(F)cc2)c2c1cc(C#N)c1nc3ccccc3n12 | inactive: -2%
82 | Cn1c(=O)c(=O)n(C)c2cc(S(=O)(=O)N3CCN(Cc4ccccc4)CC3)ccc21 | inconclusive
83 | CCN(CCNS(=O)(=O)c1ccc2c(c1)oc(=O)n2C)c1ccccc1 | inconclusive
84 | COc1ccc(OC)c(C2CC(=O)c3c([nH]c(C(=O)OCC4CCCO4)c3C)C2)c1 (centres undefined) | inconclusive
85 | CC1=C(C(=O)NCc2ccc3c(c2)OCO3)C2(CCC(C)CC2)OC1=O (centres undefined) | inconclusive
86 | CCCCN(C)C(=O)c1cn(CC)c2ccc(S(=O)(=O)N(C)C)cc2c1=O | inconclusive
87 | O=C(C1CCN(c2ccc(N3CCOCC3)nn2)CC1)N1CCN(c2ccc(F)cc2)CC1 | inactive: 9%
88 | COc1cc2c(cc1OC)C(C(=O)O)C(c1ccc(C)o1)N(C)C2=O (centres undefined) | inconclusive
89 | CCOC(=O)CCc1c(C)nc2c(c(C)nn2C(C)(C)C)c1C | inconclusive
